We go through one substance from patent US10561379B2, “In vivo positron emission tomography-based perfusion/blood pool imaging using labeled erythrocytes” (H. LEE MOFFITT CANCER CENTER AND RESEARCH INSTITUTE, INC., priority 2016, dated 2020).

The data set relates to human RBCs. Nature of the data set: Residual unincorporated FDG in washed RBC fraction, incubation supernatant and wash supernatants. The data set is classed as cell-based.

Consider 2-deoxy-2-(^18F)fluoro-D-glucose [FDG], for which the “relative % of total FDG in washed RBC fraction” value (500 μl RBC fraction (FIG. 14)) was 59%±1%. Further, where the note is “FIG. 14”, the “relative % of total FDG in 1st wash supernatant” value is 3%±1%, the “relative % of total FDG in 2nd wash supernatant” value is recorded as 2%±1%, the “relative % of total FDG in 3rd wash supernatant” value is recorded as 1%±1% and the “relative % of total FDG in original supernatant (unincorporated FDG after initial incubation)” value is reported as 36%±2%.
